Measurements taken from article PMC8592984.
No constants are given. Whether binding was seen depends on the method and setting. For some assays here: In cells and extracts the contact can be indirect. Some binding calls cover weakened binding; strength is not graded here.

Amino acid sequences for entries named in this document (tags omitted). A change or cut given only in a name is not applied to a line headed by its entry. Chains listed by the source or under a name are the forms on record and can include a tag or linker. Residues count along the entry.
UniProt Q91VJ5: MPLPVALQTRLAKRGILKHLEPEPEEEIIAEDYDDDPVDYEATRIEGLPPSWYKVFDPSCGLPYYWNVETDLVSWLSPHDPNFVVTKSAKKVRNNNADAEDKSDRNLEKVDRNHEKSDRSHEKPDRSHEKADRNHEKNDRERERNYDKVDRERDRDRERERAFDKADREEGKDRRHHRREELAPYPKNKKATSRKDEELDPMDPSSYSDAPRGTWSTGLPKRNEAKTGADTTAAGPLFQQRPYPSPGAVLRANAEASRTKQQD
UniProt P05067, residues 672-711: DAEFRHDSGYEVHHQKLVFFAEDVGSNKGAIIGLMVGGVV
TAMRA-labeled Tau 410 (P10636-5, form named): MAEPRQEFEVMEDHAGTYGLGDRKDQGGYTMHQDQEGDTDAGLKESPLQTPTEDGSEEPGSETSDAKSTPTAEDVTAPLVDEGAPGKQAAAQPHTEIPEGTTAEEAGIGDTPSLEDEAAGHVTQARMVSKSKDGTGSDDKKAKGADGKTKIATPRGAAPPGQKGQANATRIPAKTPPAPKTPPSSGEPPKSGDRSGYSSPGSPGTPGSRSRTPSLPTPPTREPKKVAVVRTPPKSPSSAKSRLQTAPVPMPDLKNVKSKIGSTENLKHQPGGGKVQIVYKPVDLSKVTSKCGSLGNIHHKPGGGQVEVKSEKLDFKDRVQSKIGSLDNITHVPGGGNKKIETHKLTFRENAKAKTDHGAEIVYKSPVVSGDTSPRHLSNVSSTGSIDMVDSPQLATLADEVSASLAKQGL
UniProt O60828: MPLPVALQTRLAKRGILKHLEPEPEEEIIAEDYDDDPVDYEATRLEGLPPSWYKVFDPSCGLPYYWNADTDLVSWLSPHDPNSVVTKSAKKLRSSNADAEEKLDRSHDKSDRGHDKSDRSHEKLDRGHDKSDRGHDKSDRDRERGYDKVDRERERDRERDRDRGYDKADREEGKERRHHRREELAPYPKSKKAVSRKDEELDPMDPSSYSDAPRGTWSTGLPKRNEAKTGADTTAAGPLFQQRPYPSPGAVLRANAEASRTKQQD

What was measured:
[1] = molecular target: endogenous mouse PQBP1 (mouse (endogenous in primary microglia and in R6/2 cerebral cortex)) (UniProt Q91VJ5); assay: co-IP; lysate (1% NP40) of primary C57BL/6 microglia cultured 3 days with 25 nM non-aggregated TAMRA-labeled Tau 410; precipitated with anti-PQBP1, anti-tau or human IgG and Protein G Sepharose; western blot and TAMRA fluorescence of the precipitate
Aβ40 = Aβ40 (UniProt P05067); assay: SPR; Aβ40 and α-synuclein fused to an N-terminal His-tag and a biotinylation-tag; BIAcore J, 25 °C; 10 mM Tris-HCl pH 8.5, 150 mM NaCl, 3 mM EDTA, 0.005% Tween-20; who was immobilised is not told for these two; both purified

| Substance | binding [1] | binding (Aβ40) |
| --- | --- | --- |
| TAMRA-labeled Tau 410 (from UniProt P10636-5 1-410) | binds |  |
| human PQBP1 full-length form (PQBP1-FL) (from UniProt O60828 1-265) |  | binds |
